Results: PubChem BioAssay AID504467 (National Center for Advancing Translational Sciences (NCATS), 2011)
Among all 330,000 compounds or so, about 7,700 (2.3%) were called active. This list was built around the results that the source calls inconclusive (neither active nor inactive); the mix of calls is not that of the screen. The call rests on the fitted dose curve; in most records, active means well fitted inhibition curve with a large enough effect; inconclusive means small, poorly fitted or top-dose-only effect, or effect the other way; inactive means flat fitted curve, though single readings scatter. Potencies of inconclusive entries are doubtful fits and often do not repeat.
Potency means the concentration at half of the fitted maximal effect.

Test: qHTS screen for small molecules that inhibit ELG1-dependent DNA repair in human embryonic kidney (HEK293T) cells expressing luciferase-tagged ELG1; further: nearly all actives have a fitted effect of over 55% in size
Conditions: HEK293T ELG1-luciferase reporter, luminescence, 16 h, DNA damage induced by 5-fluorouridine; series mostly up to 46.1 µM
Procedure, shortened: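 Quantitative HTS, concentration-response format. 2,000 cells/well co-treated with 5-fluorouridine and compound, 16 hr in 5% CO2 at 37 °C; ONE-Glo luminescence read after 30 min.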
For Cc1ccccc1-c1cc(-c2ccccc2O)n[nH]1, the Potency was inconclusive: 3.26 µM [activator, partial curve].
In the case of CC(=O)Nc1ccc(S(=O)(=O)N2CCN=C2SCc2ccc([N+](=O)[O-])cc2)cc1, the Potency is reported as inconclusive: 3.66 µM [inhibitor, full curve].
For Cc1ccc(-n2ncc3c(N4CCN(c5ccccc5)CC4)ncnc32)c(C)c1, the Potency was inconclusive: 29.1 µM [inhibitor, single point].
For CN(C(=O)Nc1cnc2ccccc2c1)c1ccccc1, the Potency was inconclusive: 16.4 µM [activator, partial curve].
For COc1cccc(C(=O)NOCc2ccccc2)c1OC, the Potency was inconclusive: 18.3 µM [activator, partial curve].
For COC(=O)Cn1c(=NC(=O)c2cc(OC)cc(OC)c2)sc2cc(OC)ccc21, the Potency was inconclusive: 8.2 µM [inhibitor, partial curve].
For CCC1CCCCN1CCCNC(=O)CN1C(=O)COc2ccccc21 (configuration not stated), the Potency was “inactive”.
For COc1cc2[nH]c(=S)nc(NC3CCCCCC3)c2cc1OC, the Potency was inconclusive: 32.6 µM [activator, partial curve, poor fit].
In the case of COCCn1c(-c2ccc(OC(F)(F)C(F)C(F)(F)F)cc2)nc2c1c(=O)[nH]c(=O)n2CC(C)C (configuration not stated), the Potency is reported as inconclusive: 29.1 µM [inhibitor, single point].
With O=C(Cc1ccccc1)NCCc1cn2ccsc2n1 the Potency was “inactive”.
In the case of COCC(C)NS(=O)(=O)c1ccc(C(=O)NCCCn2ccc3ccccc32)cc1 (configuration not stated), the Potency is reported as inconclusive: 18.3 µM [inhibitor, partial curve, poor fit].
With Cc1ccc(CSc2nnc(-c3ccco3)o2)cc1 the Potency was inconclusive: 20.6 µM [activator, partial curve].
In the case of COc1ccc(CN(C)C(=O)C2CCN(C(=O)Nc3ccccc3)CC2)cc1OC, the Potency is reported as “inactive”.
With COc1ccc(C(=O)Nc2ccc(C)cn2)cc1S(=O)(=O)N1CCCc2ccccc21 the Potency was inconclusive: 20.6 µM [inhibitor, partial curve].
With COc1ccc(CN(C)C(=O)c2cc(S(=O)(=O)N3CCCCCC3)ccc2OC)cc1OC the Potency was inconclusive: 23.1 µM [inhibitor, single point].
With CC(C(c1cccs1)c1c(N)n(C)c(=O)n(C)c1=O)[N+](=O)[O-] (configuration not stated) the Potency was “inactive”.
With CCOC(=O)c1[nH]c2ccc(OCC)cc2c1NC(=O)CN1CCN(c2ccccc2)CC1 the Potency was inconclusive: 29.1 µM [inhibitor, single point].
In the case of CCOc1ccccc1NC(=O)C(=O)/C=C(\O)c1cc(OC)ccc1OC, the Potency is reported as “inactive”.
For COc1ccc(-c2nc3ccccn3c2CN2CCN(c3ccccc3F)CC2)cc1, the Potency was inconclusive: 29.1 µM [inhibitor, single point].
With COc1ccc(CCNC(=O)C2CCC(=O)N2S(=O)(=O)c2ccc(C)cc2)cc1 (configuration not stated) the Potency was “inactive”.
In the case of COc1cc(C(=O)Nc2ccc3nc(N4CCN(C)CC4)cc(C)c3c2)cc(OC)c1OC, the Potency is reported as inconclusive: 13 µM [activator, partial curve].
With Cc1cc(=O)[nH]c(SCCOc2ccc(OC(C)C)cc2)n1 the Potency was inconclusive: 29.1 µM [activator, single point].
For CC(CNc1ccc([N+](=O)[O-])c2cccnc12)Nc1c([N+](=O)[O-])cc(C(F)(F)F)cc1[N+](=O)[O-] (configuration not stated), the Potency was inconclusive: 5.17 µM [inhibitor, partial curve, poor fit].
In the case of Cc1ccc(-c2nc(CN(C)Cc3ccc4nccnc4c3)c(C)o2)s1, the Potency is reported as “inactive”.
With COc1ccc(NC(=O)COC(=O)/C=C/c2ccc(OC)c(S(=O)(=O)N3CCOCC3)c2)cc1 the Potency was “inactive”.
For CCOC(=O)N1CCN(C(=O)c2ccc3c(c2)sc2nc(-c4ccc(OC)cc4)cn23)CC1, the Potency was inconclusive: 29.1 µM [inhibitor, single point].
For CCOC(=O)c1csc(NC(=O)c2cc(OC)c(OC)c(OC)c2)n1, the Potency was active: 5.8 µM.
For CN(C)S(=O)(=O)N1CCC(Oc2cccc(C(=O)N3CCSCC3)c2)CC1, the Potency was “inactive”.
For CCC(=O)Nc1nc(N)n(-c2ccccc2)n1, the Potency was “inactive”.
In the case of COc1cc(OC)cc(C(=O)NCC(=O)NCc2ccccn2)c1, the Potency is reported as “inactive”.
For CC(C)COc1ccc(C(=O)Nc2sc3c(c2C(=O)O)CC(C)(C)OC3)cc1, the Potency was “inactive”.
For O=C(COC(=O)Cc1ccc(Br)cc1)NCc1ccc2c(c1)OCO2, the Potency was “inactive”.
With O=C(OCC(=O)N1CCCCCC1)c1ccc(Cl)c(S(=O)(=O)N2CCCC2)c1 the Potency was “inactive”.
For CC(OC(=O)C1CSC2(C)CCC(=O)N12)C(=O)Nc1cccc(C#N)c1 (configuration not stated), the Potency was “inactive”.
For CC1CCCC(NC(=O)COC(=O)c2cc(S(=O)(=O)N3CCCCC3)ccc2N2CCOCC2)C1C (configuration not stated), the Potency was inconclusive: 13 µM [inhibitor, partial curve].
In the case of CCCOc1ccc(C(=O)NCC(c2ccco2)N(C)C)cc1 (configuration not stated), the Potency is reported as inconclusive: 16.4 µM [activator, partial curve, poor fit].
With Cc1c(C)n(Cc2ccc(F)cc2)c2ccc(C(=O)NCCN3CCOCC3)cc12 the Potency was “inactive”.
With COc1ccccc1C1CC(c2ccccc2)=NN1S(=O)(=O)c1ccccc1 (configuration not stated) the Potency was active: 23.1 µM.
With COc1cc2oc(=O)cc(-c3ccc(-c4ccc(OC(F)(F)F)cc4)cc3)c2c(OC)c1OC the Potency was “inactive”.
In the case of CCCCNC(=S)Nc1ccc(Oc2ccccc2)cc1, the Potency is reported as “inactive”.
In the case of O=C(O)c1cc2c(N3CCC(Cc4ccccc4)CC3)ncnc2s1, the Potency is reported as “inactive”.
With CC(C)C(=O)NC(=S)Nc1ccc(S(=O)(=O)Nc2nccs2)cc1 the Potency was inconclusive: 18.3 µM [inhibitor, single point].
For COc1cccc(C(=O)NCCC2=CCCCC2)c1, the Potency was inconclusive: 2.31 µM [activator, full curve].
In the case of CCOC(=O)c1c(NC(=O)CSc2nnnn2C)sc(C)c1-c1ccc(C)cc1, the Potency is reported as “inactive”.
In the case of O=C(c1cc(-c2ccc(Cl)cc2Cl)on1)N1CCN(C(=O)c2ccco2)CC1, the Potency is reported as inconclusive: 3.16 µM [inhibitor, single point].
In the case of O=C(NCC1COc2ccccc2O1)c1ccc(F)c(S(=O)(=O)N2CCOCC2)c1 (configuration not stated), the Potency is reported as “inactive”.
In the case of S=c1[nH]nc(-c2ccc(Cl)cc2)n1CCCN1CCOCC1, the Potency is reported as “inactive”.
